Data on two molecules can be found in patent US20180016344A1.

These are yes or no findings as the source states them, for the method shown. Binding calls can cover weak binding; strength is not graded here.

Experiment [1] has as its target cynomolgus monkey (Macaca fascicularis) DR5 (cynomolgus monkey (Macaca fascicularis)). As to the kind of experiment: antibody titration read as MFI (log axis) against concentration in nM; the text does not describe the assay format or how DR5 was presented (Example 2).
For experiment [2] the target is unchanged. The experiment is described as follows: legend of FIG. 5.

B1: DR5 mAb 1 (antibody, V domains shown)
VH: EVKFLESGGGLVQPGGSLKLSCVASGFDFSRYWMSWVRQAPGKGLEWIGEINPDSNTINYTPSLKDKFIISRDNAKNTLYLQMTKVRSEDTALYYCTRRAYYGNPAWFAYWGQGTLVTVSS
VL: DIVLTQSPASLAVSLGQRATISCRASKSVSSSGYSYMHWYQQKPGQPPKVLIFLSSNLDSGVPARFSGSGSGTDFTLNIHPVEDGDAATYYCQHSRDLPPTFGGGTKLEIK
As to B1, the binding entry in experiment [1] and in experiment [2] was “binds” throughout.

B2: DR5 mAb 2 (antibody, V domains shown)
VH: KVQLQQSGAELVKPGASVKLSCKASGYTFTEYILHWVKQKSGQGLEWIGWFYPGNNNIKYNEKFKDKATLTADKSSSTVYMELSRLTSEDSAVYFCARHEQGPGYFDYWGQGTTLTVSS
VL: DIVMTQSHKFMSTSVGDRVSITCKASQDVNTAVAWYQQKPGQSPKLLIYWASTRHTGVPDRFTGSGSGTDYTLTIKSVQAEDLTLYYCQQHYITPWTFGGGTKLEIK
Take B2: the binding result in experiment [1] and in experiment [2] was “binds” each time.
